Assay results from article PMC13059783.
Results are given in words; binding and its absence hold for the method and conditions named. Binding seen in cells or lysates may run through a third protein. Some entries that bind do so weakly or less than the wild type.

Sequences of proteins named here, by UniProt entry; tags and fusion partners are left off.
UniProt Q14247: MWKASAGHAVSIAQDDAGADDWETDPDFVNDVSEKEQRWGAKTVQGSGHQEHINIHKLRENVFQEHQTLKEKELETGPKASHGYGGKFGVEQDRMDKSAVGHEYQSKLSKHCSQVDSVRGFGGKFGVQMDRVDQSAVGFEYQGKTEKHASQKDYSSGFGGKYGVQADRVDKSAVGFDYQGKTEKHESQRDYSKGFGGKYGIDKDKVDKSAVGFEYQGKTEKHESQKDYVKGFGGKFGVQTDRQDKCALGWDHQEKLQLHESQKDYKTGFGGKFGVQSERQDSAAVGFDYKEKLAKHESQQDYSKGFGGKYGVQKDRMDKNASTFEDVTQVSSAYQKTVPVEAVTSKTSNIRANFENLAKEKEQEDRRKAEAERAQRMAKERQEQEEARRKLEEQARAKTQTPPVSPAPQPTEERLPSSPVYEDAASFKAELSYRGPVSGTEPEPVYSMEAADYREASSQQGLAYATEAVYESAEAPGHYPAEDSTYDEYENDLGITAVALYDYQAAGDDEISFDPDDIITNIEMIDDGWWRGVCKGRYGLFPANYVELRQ
UniProt P23528: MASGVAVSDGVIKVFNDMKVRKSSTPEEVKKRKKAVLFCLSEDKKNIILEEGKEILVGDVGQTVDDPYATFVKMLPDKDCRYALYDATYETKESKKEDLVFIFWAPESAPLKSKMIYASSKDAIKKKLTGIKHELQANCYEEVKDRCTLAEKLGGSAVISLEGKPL

Biological target: Cortactin (UniProt Q14247)
Test: co-IP; exogenous co-immunoprecipitation in HEK-293T cells (legend: T24 cells); control cells and cells with TCF7L2 knocked down (binding attenuated after knock-down); bait not told

## Cofilin1 (from UniProt P23528 1-166)
  binding: binds
